From patent US20140343124A1 (ROYAL INSTITUTION FOR THE ADVANCEMENT OF LEARNING MCGILL …, published 2014)

Key:
[1] = target: actin (actin stress fibers / actin cytoskeleton of glioma cells); assay: localisation in transfected cells, actin labelled with phalloidin
[2] = target: actin (actin stress fibers / actin cytoskeleton of glioma cells); assay: immunolabelling of wild-type U251 cells with anti-DRR antibody
[3] = target: actin (actin stress fibers / actin cytoskeleton of glioma cells); assay: sub-cellular localisation by fluorescence microscopy

Measured: binding

B1: downregulated in renal cell carcinoma (DRR), human, full-length (protein, UniProt O95990 1-144, looked up)
chain: MYSEIQRERADIGGLMARPEYREWNPELIKPKKLLNPVKASRSHQELHRELLMNHRRGLGVDSKPELQRVLEHRRRNQLIKKKKEELEAKRLQCPFEQELLRRQQRLNQLEKPPEKEEDHAPEFIKVRENLRRIATLTSEEREL
binds: [1] | [2] | [3]

Results are given in words; binding and its absence hold for the method and conditions named. Binding can be weak; no strength is given.
